Results are given in words; binding and its absence hold for the method and conditions named.
Target: T1, LHPQF conjugated BSA
T1 sequence (peptide): LHPQF
Assay: oblique-incidence reflectivity difference (OI-RD); line-shaped microarray printed at 0.5 mg/mL in 1x PBS on epoxy-coated glass, washed, blocked with 0.5 mg/mL BSA for 10 min; 83 nM streptavidin or avidin added in 1x PBS with stirring; total internal reflection prism and photodiode array; curves compensated by subtracting the substrate signal; both purified

Protein sequences, listed by entry. Tags and fused reporters are not part of them. Residues count along the entry.
UniProt P02701, residues 25-152: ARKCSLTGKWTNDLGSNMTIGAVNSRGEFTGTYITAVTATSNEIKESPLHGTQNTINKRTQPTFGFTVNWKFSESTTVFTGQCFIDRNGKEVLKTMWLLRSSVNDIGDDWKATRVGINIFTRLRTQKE

avidin (from UniProt P02701 25-152)
binding: no binding (tested: 83 nM)

— article PMC4299064
